Data taken from the supplement of paper PMC12889115.
The list shows a part of the results. These are raw signals, not scaled to a control.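 In the initial screen, polymyxin B was used at a concentration that permeabilizes Salmonella's outer membrane but not its inner membrane. Maximum growth was set by DMSO wells with or without polymyxin B. Since plates varied, data were ranked per plate, and compounds giving the lowest OD600 advanced as hits.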

Tested on: Salmonella enterica serovar Typhimurium SL1344
Assay: bacterial growth OD600 after 18 h with compound and polymyxin B; higher = more bacterial growth (less inhibition)
Details: 50 µM, Mueller-Hinton broth

Row | Structure (SMILES) | bacterial growth OD600 (polymyxin B 0.75 µg/mL) | bacterial growth OD600 (polymyxin B 1 µg/mL)
1 | COCc1ccc(C(=O)Nc2ccc(-c3nc(CNC(=O)c4ccc(F)cc4F)c(C)o3)cc2)o1 | 0.799 | 
2 | Cc1cnc(C(=O)NC2CCCc3nc(-c4ccccc4)ncc32)cn1 (configuration not stated) |  | 0.931
3 | CCc1cc(C(=O)NC2CC(=O)N(CC3CCCCC3)C2)n(C)n1 (configuration not stated) |  | 0.871
4 | CN(CCN1CCCCC1)C(=O)CCc1nnc(-c2ccc3c(c2)OCO3)o1 | 0.76 | 
5 | CC(C)Cc1ccc(CN2CCCC(NC(=O)C3CCN(Cc4ccco4)CC3)C2)cc1 (configuration not stated) |  | 0.906
6 | CCc1ccc(CN2CCc3c(C(=O)N4CCc5ccccc5C4)c(OC)cc(=O)n3CC2)cc1 | 0.732 | 
7 | O=C(NCC1CCCN(C(=O)c2cncs2)C1)c1ccc(-c2ccccc2)cc1 (configuration not stated) |  | 0.921
8 | CC(=O)Nc1cnn(-c2ccc(C(=O)N3CCCC(c4ccccc4)C3)cc2)c1 (configuration not stated) | 0.915 | 
9 | O=C(CC(c1cccc(O)c1)c1ccccc1O)NC1CCCCC1 (configuration not stated) |  | 0.502
10 | OCC1CCN(c2ncc3c(n2)CCCC3NCc2ccc3c(c2)CCO3)CC1 (configuration not stated) | 0.837 | 
11 | COc1ccc(/C=C/C(=O)N(C)C2CCCN(C3Cc4ccccc4C3)C2)cc1OC (configuration not stated) |  | 0.88
12 | CCC(=O)NC1CCCc2nc(-c3cccnc3)ncc21 (configuration not stated) |  | 1.1
13 | CN(Cc1ccccn1)C(=O)c1cc(COc2ccc(F)c(F)c2)on1 |  | 0.652
14 | Cc1ccc2c(C)nc(N3CCC(C(=O)NC4CCOC(C)(C)C4)CC3)nc2c1 (configuration not stated) | 0.809 | 
15 | CN(CCc1ccccc1)C(=O)c1nc2sccn2c1CNC1CCC1 |  | 0.855
16 | Cc1nc(CN(C)C(=O)C2CCC(=O)N(CCCc3ccccc3)C2)cs1 (configuration not stated) |  | 0.884

Row | Structure (SMILES) | bacterial growth OD600 (polymyxin B 0.75 µg/mL) | bacterial growth OD600 (polymyxin B 1 µg/mL)
17 | O=C(CC1(c2ccccc2)CC(=O)N(Cc2cccs2)C1=O)N1CCN(c2ccccc2)CC1 (configuration not stated) | 0.737 | 
18 | Cc1ccc2oc(C(=O)N(C)Cc3cccc4cccnc34)c(C)c2c1 | 0.069 | 
19 | COc1ccc(-c2n[nH]cc2CN2C[C@H]3OC(=O)N(C4CCCC4)[C@H]3C2)cc1 | 0.803 | 
20 | COCC1CCCN(C(=O)c2cc(Cn3nc(C)cc3C)[nH]n2)C1 (configuration not stated) | 0.772 | 
21 | CCCCN(C)C(=O)CCc1nnc(CCc2ccccc2OC)o1 |  | 0.894
22 | CCN1CCN(C2(C(=O)NCCn3cccn3)Cc3ccccc3C2)CC1 | 0.999 | 
23 | CCOC(=O)C1(CCc2ccccc2)CCN(C(=O)c2occc2C)CC1 |  | 0.007
24 | CCN1CCN(CC(=O)NCc2cc(C)cc3c(C)c(C)[nH]c23)CC1 |  | 1.01
25 | CCOC(=O)C1(CCc2ccccc2)CCCN(Cc2cnc(SC)nc2)C1 (configuration not stated) |  | -0.001
26 | Cc1cc(C)n(Cc2cc(C(=O)NCc3cccs3)n[nH]2)n1 |  | 0.932
27 | C=CCn1cc(CN2C[C@H]3OC(=O)N(Cc4ccccn4)[C@H]3C2)c(C)n1 | 0.822 | 
28 | COc1ccc([C@@H](C)NC(=O)CCC2(Cc3ccc(C)cc3)CCC(=O)N2)cc1 (some centres not stated) | 0.769 | 
29 | COc1ccc(CN2C[C@@H]3C[C@@H](c4ccc(C)c(C)c4)N4CCC[C@@]34C2=O)cc1 | 0.79 | 
30 | COc1ccc(C(=O)NC2CC2)c(OC2CCN(Cc3ccc(C)s3)CC2)c1 |  | 0.787
31 | C=CCN(CC=C)C(=O)CC1(c2ccccc2OC)CC(=O)N(CCCOC)C1=O (configuration not stated) | 0.967 | 
32 | COC(=O)c1ccc(CN2CCCCC2C(=O)Nc2ccc(-n3cnnn3)cc2)cc1 (configuration not stated) |  | 1.03

Part of the list above, in CSV form:
Row,Structure (SMILES),bacterial growth OD600 (polymyxin B 0.75 µg/mL),bacterial growth OD600 (polymyxin B 1 µg/mL)
17,O=C(CC1(c2ccccc2)CC(=O)N(Cc2cccs2)C1=O)N1CCN(c2ccccc2)CC1 (configuration not stated),0.737,
18,Cc1ccc2oc(C(=O)N(C)Cc3cccc4cccnc34)c(C)c2c1,0.069,
22,CCN1CCN(C2(C(=O)NCCn3cccn3)Cc3ccccc3C2)CC1,0.999,
26,Cc1cc(C)n(Cc2cc(C(=O)NCc3cccs3)n[nH]2)n1,,0.932
27,C=CCn1cc(CN2C[C@H]3OC(=O)N(Cc4ccccn4)[C@H]3C2)c(C)n1,0.822,
28,COc1ccc([C@@H](C)NC(=O)CCC2(Cc3ccc(C)cc3)CCC(=O)N2)cc1 (some centres not stated),0.769,
29,COc1ccc(CN2C[C@@H]3C[C@@H](c4ccc(C)c(C)c4)N4CCC[C@@]34C2=O)cc1,0.79,
31,C=CCN(CC=C)C(=O)CC1(c2ccccc2OC)CC(=O)N(CCCOC)C1=O (configuration not stated),0.967,
32,COC(=O)c1ccc(CN2CCCCC2C(=O)Nc2ccc(-n3cnnn3)cc2)cc1 (configuration not stated),,1.03
